For 1 substance, binding results are on record in article PMC11164484.

These are yes or no findings as the source states them, for the method shown. In cells and extracts the contact can be indirect. Some results given as binding are weak or reduced against the parent protein; the word gives no strength.

The experiment deals with T1, Crystallin Alpha B (CRYAB) (human (endogenous in BMSCs)) (UniProt P02511).
T1 sequence: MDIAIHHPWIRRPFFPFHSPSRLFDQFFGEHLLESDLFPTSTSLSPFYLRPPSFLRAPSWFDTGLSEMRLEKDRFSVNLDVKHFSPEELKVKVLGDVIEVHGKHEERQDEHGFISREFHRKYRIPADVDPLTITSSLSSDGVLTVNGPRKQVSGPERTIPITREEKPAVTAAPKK
Put plainly: co-IP; co-IP in BMSCs with CRYAB antibody or FTH1 antibody for immunoprecipitation, Western blot detection.

As for “ferritin heavy chain 1 (FTH1) (from UniProt P02794 1-183)”, the binding entry is reported as “binds”.
